These are yes or no findings as the source states them, for the method shown. Binding seen in cells or lysates may run through a third protein. Some entries that bind do so weakly or less than the wild type.
Biological target: T1, Atad3 (mouse (endogenous in mouse ES cells)) (UniProt Q925I1)
T1 sequence: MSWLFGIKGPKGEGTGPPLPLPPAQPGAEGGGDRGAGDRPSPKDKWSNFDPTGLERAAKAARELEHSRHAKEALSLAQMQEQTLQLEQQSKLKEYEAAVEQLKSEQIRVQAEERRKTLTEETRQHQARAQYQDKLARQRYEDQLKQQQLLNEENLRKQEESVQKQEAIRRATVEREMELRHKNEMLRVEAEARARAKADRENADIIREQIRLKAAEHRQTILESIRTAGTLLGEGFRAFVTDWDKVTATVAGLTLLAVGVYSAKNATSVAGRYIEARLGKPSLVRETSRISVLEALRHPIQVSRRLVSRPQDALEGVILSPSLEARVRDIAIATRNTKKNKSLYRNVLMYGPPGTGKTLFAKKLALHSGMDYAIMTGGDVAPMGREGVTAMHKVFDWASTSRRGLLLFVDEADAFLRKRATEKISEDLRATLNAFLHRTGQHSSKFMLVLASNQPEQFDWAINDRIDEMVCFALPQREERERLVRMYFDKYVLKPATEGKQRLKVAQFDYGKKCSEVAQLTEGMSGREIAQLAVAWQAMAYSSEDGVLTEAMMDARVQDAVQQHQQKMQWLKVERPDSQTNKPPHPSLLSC
Test: proximity ligation; fixed mouse ES cells, anti-Stat3 and anti-Atad3 primary antibodies overnight, OLink Bioscience kit, confocal imaging, red dots per cell counted; single antibodies and Stat3-/- cells as controls

The chains behind the UniProt entries cited, without tags or fusion partners.
UniProt P42227: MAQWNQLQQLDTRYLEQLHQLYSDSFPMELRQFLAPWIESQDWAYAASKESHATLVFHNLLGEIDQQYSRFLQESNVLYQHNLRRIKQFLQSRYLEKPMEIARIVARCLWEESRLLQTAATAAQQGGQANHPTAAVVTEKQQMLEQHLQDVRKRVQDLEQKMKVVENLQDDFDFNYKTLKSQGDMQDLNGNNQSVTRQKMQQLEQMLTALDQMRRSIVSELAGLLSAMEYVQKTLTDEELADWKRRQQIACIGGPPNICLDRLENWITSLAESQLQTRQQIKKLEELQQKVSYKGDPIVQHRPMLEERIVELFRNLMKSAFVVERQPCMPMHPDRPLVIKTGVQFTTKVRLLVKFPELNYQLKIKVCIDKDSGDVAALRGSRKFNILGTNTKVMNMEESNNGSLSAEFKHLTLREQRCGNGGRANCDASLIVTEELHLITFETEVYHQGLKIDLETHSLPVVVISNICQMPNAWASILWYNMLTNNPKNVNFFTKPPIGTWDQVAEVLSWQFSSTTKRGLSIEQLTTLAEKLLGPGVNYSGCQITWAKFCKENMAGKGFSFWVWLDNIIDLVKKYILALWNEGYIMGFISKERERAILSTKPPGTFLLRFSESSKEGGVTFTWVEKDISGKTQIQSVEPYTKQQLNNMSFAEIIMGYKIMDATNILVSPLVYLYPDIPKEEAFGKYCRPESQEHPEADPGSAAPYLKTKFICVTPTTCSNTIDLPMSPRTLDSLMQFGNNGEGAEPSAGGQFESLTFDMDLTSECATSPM

binding: binds
Substance: Stat3 (from UniProt P42227 1-770)
